Drawing on PubChem BioAssay AID1347423 (Functional Genomics Laboratory (NCATS/FGL), 2020), this text covers z-score for 103 sequences.

Hit rate of the full screen: of about 52,000 sequences, about 210 (0.4%) were called active.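 Rule for the calls: active = gene whose silencing raises cell survival under the drug, median off-target-corrected z-score across its silencing RNAs 2 or more; inactive = the rest.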 The list shows a part of the results.

A short description of the assay: Resistance to Poly (ADP-Ribose) Polymerase inhibitor: Gene Identification via Genome-wide siRNA Screen. The following applies: mouse BRCA2 R2336H ES cells, olaparib, CellTiter-Glo viability; hits give high values. An outline of the steps: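 Genome-wide siRNA screen (3 siRNAs/gene, 20 nM) in mouse ES cells carrying hypomorphic BRCA2 R2336H; olaparib 500 nM added 48 h post-transfection, CellTiter-Glo viability 72 h later. Normalized to plate-median negative control; MAD z-scores, gene median, seed-adjusted.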
(In general: Cellular ATP, detected with luciferase, serves as a proxy for viable cell number.)
As to GGUGCCUAAUGGAUAAGAATT against Thrap2, the z-score is inactive: 0.923.

For the sequence CCUGCCUAUGUCUAGGCCATT against AW212607, the z-score is inactive: 1.16.

Regarding GCUAGCACAGGGAAUUUAGTT against Rgs20, the z-score was inactive: -1.11.

Regarding GCCUGUCUCCUCAAUGCUUTT against LOC433873, the z-score was inactive: -0.298.

Regarding GGAUGGAGACCUCUCCUUUTT against Guca2a, the z-score was inactive: -0.761.

In the case of GGAGAAUGGAAAGUAUGGGTT against D1Pas1, the z-score is inactive: -0.821.

As to “GGUUGUGAGCUAACAAUGGTT against B430209F14Rik”, the z-score was inactive: -1.11.

Take GGUAUGCUCUCUGUUGACUTT against Olfr922: the z-score is inactive: -1.13.

On to GGAGAGUAUGGACAGUAUUTT against Pgc, for which the z-score was inactive: -1.42.

GGGUUAGAACUGACACCCGTT against Elk4: the z-score is inactive: 0.248.

With GGUUGUUUCCAGUAUUCUGTT against Apc2, the z-score was inactive: 0.257.

Turning to GCAGUAGGUGCCUUAUUGGTT against Rab11a, the z-score is inactive: 0.0317.

With GGUGAUGGUCCAGAUUAACTT against Prosc, the z-score was inactive: 0.691.

Regarding GGAACUUGGUGCAAUCAUCTT against AI132321, the z-score was inactive: 1.24.

As to GACCGAGGUCAACAGAGUGTT against Slc6a20, the z-score is inactive: -1.24.

“GGCACAGUAAUCUUUUUCUTT against C130086A10”: the z-score is inactive: 0.197.

For the sequence GGCUGUGAAAUCGGAUUUATT against Cacnb2, the z-score is inactive: -0.673.

With CGUGUAUGAGGCUAAGUUATT against Gpr68, the z-score is inactive: -0.494.

Turning to GGGUUAUUGAAUUAGUUCATT against Mybl1, the z-score was inactive: 0.687.

As to GCUAUAAGUUUCUGGGUGATT against Fzd2, the z-score is inactive: 1.23.

Turning to “GGUAUUUGAAUUUCGUCCCTT against 2610312B22Rik”, the z-score is inactive: -0.182.

As for GCAUAAACUAACCACUUAGTT against Evi2b, the z-score is inactive: -1.12.

In the case of GGGCAAACUCUAUAAUCAGTT against BC023105, the z-score is inactive: -1.15.

For the sequence “CGCCUAGCCUACUGAGAUUTT against 6330408A02Rik”, the z-score is inactive: -0.179.

For GGGAAGAAACUGUGAUUUUTT against Cbfa2t3h, the z-score was inactive: 0.583.

GGCUGAAAUAUGAAAUUGCTT against Pscd3: the z-score was inactive: 0.00525.

For the sequence CGGAACUAUGAAAAGAAAUTT against Stk3, the z-score was inactive: -0.0974.

For the sequence “GGUUGGCAUGUUUGGUGUUTT against 6430596G11Rik”, the z-score is inactive: -0.488.

As to CCCUAGAUGGCCGAAAUAUTT against Dazap1, the z-score is inactive: -1.82.

As to GCAGAAGUCUAUCACCUUUTT against Olfr1441, the z-score is inactive: 1.57.

Regarding GGGAAUCUUGGCAUGAUGGTT against Olfr1030, the z-score is inactive: -0.0935.

In the case of GGCAAAAUUUGUGUGCAAATT against Mrc1, the z-score was inactive: 1.09.

For GCGAUGGACUCAAAAAACUTT against Ehd3, the z-score is inactive: 0.71.

Take “GGUAGAUGAUAAUUUCACUTT against 4930595M18Rik”: the z-score is inactive: 1.05.

With GCUAGAUUACUCACAUCUATT against Ivl, the z-score is inactive: -0.664.

Turning to “GGAAUUCCAGACACCCAUCTT against 1110011K10Rik”, the z-score was inactive: 0.835.

On to “GCAGUAUCUACAAGAGGAGTT against 4933413B09Rik”, for which the z-score was inactive: 0.792.

Consider GCCGAAACAAUGUACAGAUTT against Rbpsuh, for which the z-score is inactive: 0.14.

Regarding GGUACAGAGCAAUAAGCAUTT against D10Wsu93e, the z-score is inactive: 0.0324.

In the case of GGAAAUGAAGGCAGCAAUGTT against Olfr1311, the z-score was inactive: 0.244.

As for GCCUUGUCUAUAGGACUGUTT against Grm6, the z-score is inactive: -1.11.

Take GCAACAAGUGUUGGACUCATT against Tob2: the z-score was inactive: -2.62.

CGCAGGUUUGAGUACAAGCTT against BC020188: the z-score was inactive: -0.296.

Regarding GCUUCCGAAAUCUGCCAAATT against Ii, the z-score was inactive: 1.61.

For GGUCAUACUCUAAUCGGACTT against Ctss, the z-score was inactive: -1.35.

With “GGACAUGCAAGACAUGGAUTT against 3200002M19Rik”, the z-score is inactive: -0.223.

Consider GCCCACGAGCCUCAUGGACTT against Sts, for which the z-score was inactive: 0.549.

Consider GCAAACACUUGAAUGUUCATT against Cacnb4, for which the z-score was inactive: 0.0867.

As to GCAUCUGUGUAGAAGUGGATT against Thrsp, the z-score was inactive: 0.473.

As for “GCUAUGAGCUAACAAGUCUTT against 5430438H03Rik”, the z-score was inactive: 0.683.

As for GGAGAAGAAAACAUCAAGUTT against Hrh3, the z-score is inactive: 0.663.

On to GGGAAAUCCUUUCUCAGUATT against AI313915, for which the z-score was inactive: -1.12.

With GGCAGUGUUUGGCAAAUAUTT against Rbmx, the z-score is inactive: 1.75.

As for “CCUGUGAAUCACCCAAUCATT against C030018G13Rik”, the z-score was inactive: -0.365.

With CCUUUGGAAACAACCACUUTT against Ugt1a6, the z-score was inactive: -0.338.

As for “GCCCAGUACAACCCUCCUATT against E330023O18”, the z-score was inactive: -1.09.

As to GGGUUGUAUGGCUCAAAUATT against Olfr728, the z-score was inactive: 0.247.

For CCUUAUGUGCCCUUUCAUCTT against LOC245128, the z-score is inactive: 0.264.

On to GGACGUGGUGUAAAAUAGCTT against Cdkn2b, for which the z-score is inactive: 0.389.

With “GGCCAUCUAAAAAUAGUAATT against A330015D16Rik”, the z-score was inactive: -0.42.

Regarding GGACAAAGAAAAAGAUUCCTT against Stxbp6, the z-score was inactive: 0.115.

For the sequence GGUCUUCUGGAGUUUGUGGTT against Glrx1, the z-score is inactive: 1.84.

In the case of GGACUGAUGCAUUCUUUGCTT against Rg9mtd2, the z-score is inactive: -1.07.

GGUCCCUGCUUUGAUUCGATT against Olfr90: the z-score is inactive: 1.72.

As for GGAAACAUGACAGCUGCUCTT against Arpc5, the z-score is inactive: -0.06.

With GGAAGGAGUUCGAAGUCAUTT against Ralgds, the z-score was inactive: 2.77.

With GGGCGAAGGGAUUACUAUUTT against Rhpn1, the z-score is inactive: -0.094.

“GAACUUUAUCACCUGCUUCTT against C030006K11Rik”: the z-score was inactive: 0.528.

Turning to GGUGAAUUUGAUUGAUGAGTT against Ccnl2, the z-score was inactive: 0.657.

For the sequence “CGCACUCUUACUCACCAGATT against 2810439K08Rik”, the z-score was inactive: -0.418.

For GGCUCAAGGACAGAUGAUGTT against Tra1, the z-score is inactive: -0.94.

As to “GGUUAUCCUUCCCAGAAUUTT against 1110059E24Rik”, the z-score was inactive: 0.0221.

On to GGUCAUUUAUGAGAGGGCUTT against Thap11, for which the z-score was inactive: -1.48.

Turning to “GGAAGCUGUUUCAAACAAATT against C730031G17”, the z-score is inactive: -1.83.

As to GGAGUAUGCCCAUUCCAUCTT against Grm8, the z-score is inactive: 0.144.

As for “GCGACUACUUAGACACUUUTT against 4732481H14Rik”, the z-score was inactive: -1.94.

As for GGUACAGCUUAUGGAUUAATT against Pdgfra, the z-score is inactive: 1.38.

Take GGAUUUGUGCCCUCCUUUCTT against Ucp3: the z-score is inactive: 0.541.

On to “GGGAACUUCCUUGAGAAGATT against 4933434I20Rik”, for which the z-score was inactive: -0.363.

Take “GCAGCUCCAUACCAAUUCCTT against 4921501E09Rik”: the z-score is inactive: 0.683.

As for CCCAAGCAAUUACAGUACUTT against Olfr42, the z-score is inactive: 0.285.

As for GGCUGUUCAAAGUGACCCUTT against Hbp1, the z-score was inactive: -0.48.

Take “CCUACUGUUUGAGUCCCAGTT against 2610014H22Rik”: the z-score was inactive: 1.96.

GGGUUUCUGCAUUGACAUUTT against Grin2d: the z-score was inactive: -0.221.

For the sequence GCCAGAUCUUUAUAUCCCGTT against Gdi3, the z-score was inactive: -0.413.

For “GCCUUUAUAGUCUUAAGCATT against 2810475A17Rik”, the z-score was inactive: -1.55.

With CCUUCAGAUAUCUUAGAAATT against D5Wsu178e, the z-score is inactive: -0.426.

Consider GGAGUUCACGGAUCUUGAGTT against BC024868, for which the z-score is inactive: -2.15.

Turning to GGCUGUUCGUACUAUAGCUTT against Gpr119, the z-score is inactive: -0.649.

Consider “GCAUAAUGGAUGGAAAGUCTT against 4930485D02Rik”, for which the z-score was inactive: -0.211.

Consider GCAACAAAUUUGAAUCAGATT against Chic2, for which the z-score was inactive: 0.349.

Consider GGUAAAUUUGACUACCUGGTT against Fbxo36, for which the z-score is inactive: 0.756.

For CCGACACAAGAUGCUCAGUTT against Tmem9, the z-score was inactive: -0.249.

With GGAAGACAUUCACGAUUGUTT against Depdc6, the z-score was inactive: -1.94.

Regarding CCUAUGGUAGAUAUCUGUGTT against Chc1l, the z-score was inactive: -0.76.

In the case of GGAAGAAGAGCUCUUUAAATT against Acate2, the z-score was inactive: 0.108.

CGCACUUUGGCUUGUAAUUTT against Smad6: the z-score was inactive: 0.642.

With CGACCGGUGUCUUGCUUUUTT against Hint1, the z-score was inactive: -0.446.

For GGAGCUCAACAAGUUGCUUTT against Hist1h2aa, the z-score was inactive: -0.0931.

For GGGAAAUCCGAUAUUCCCUTT against Lats2, the z-score is inactive: 0.908.

Turning to CCUAUGGCAUCGUGUAUCGTT against Cdk10, the z-score was inactive: -0.963.

Regarding GGAACAGUUUCUAAAACAGTT against Mapkbp1, the z-score was inactive: 0.926.

Take “GGCUAAAUGCCGAUGUACUTT against 4432404J10Rik”: the z-score is inactive: 0.444.
